Assay results reported in article PMC12142043, “Cell-based high-content approach for SARS-CoV-2 neutralization identifies unique monoclonal antibodies and PI3K pathway inhibitors” (Frontiers in Cell and Developmental Biology, 2025).

Tested on: SARS-CoV-2 (USA-WA1/2020) in Calu-3 cells
Type: cell-based

## Nc1ccc(C(=O)Nc2cccc(-c3nc(N4CCOCC4)c4oc5ncccc5c4n3)c2)cn1 [YM201636]
  dsRNA signal, AU High: 7268.3
  dsRNA signal, AU Low: 43298.6
